# The supplement of paper PMC8728848
# The list shows a part of the results.
# B1: GST-Gap1 (Streptococcus parasanguinis), A1C3L5 (protein)
# chain: MFYFVPSWYNGQRQWYYDTPWWFRVKNRMTFDDSVNQVKMFLQGQEEIGLMILNYQPQLRYFLHKQNIFGIYYWSFFDDIQNITRSYTKIIHLKDLNWPEGCEFLYSPFAVVVRLKGEIFAIVNYAEDGNLHSVSFQKNGKVTKDYIFDDRGFLSSILYYDIDERPLYQDYLNINGVWQVREFLKKENDPTPILMINDFSDQTFSKKYYNGWEELIKERLAIFQNNHVENEDVFVLASDTQHNQLVSSIFKEHRKIYSFFGNRFNLENLGQDRISINDATFLVVDTEKNEELLRKTCENLVFKSIPIVRLSPFDSRLRLGHSQTVKEQIIYFHIDNIELDELYSVIAIILELMTLHLDIELRIVTFRQDFQLDLLKTWIIDFIKTNHFEDLLFKQISEGENEIEDEGEIELSRIAMECFTNENQIIKCLDTARLVIDLGIEPDLYTQIASISAGIPQINRVSSDYVIHQKNGLVISDISKLSSAIEFYFDGLFNWNEALIYAVRKMSDYTSGKILKQWKGMLKKK
# Columns and labels:
# Experiment in all cases: glycan array binding signal (z-score within array); higher = stronger binding
# Details in all cases: glycan notation: IUPAC condensed, linker removed
# [1] = biological target: GlcNAc(b1-2)[GlcNAc(b1-6)]Man(a1-6)[GlcNAc(b1-2)Man(a1-3)]Man(b1-4)GlcNAc(b1-4)GlcNAc
# How it was run: (§1)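 The binding signal is a Z-score computed within each array. Data were drawn from 3228 arrays in the Consortium for Functional Glycomics database, restricted to those with a known protein sequence. Scores were averaged over arrays of the same protein sequence at different concentrations or buffers, and over linkers, and negative values can be taken as non-binding.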
# [2] = biological target: GlcNAc(b1-2)[GlcNAc(b1-6)]Man(a1-6)[GlcNAc(b1-2)Man(a1-3)]Man(b1-4)GlcNAc(b1-4)[Fuc(a1-6)]GlcNAc
# How it was run: as §1
# [3] = biological target: GlcNAc(b1-2)[GlcNAc(b1-6)]Man(a1-6)[GlcNAc(b1-2)Man(a1-3)][GlcNAc(b1-4)]Man(b1-4)GlcNAc(b1-4)GlcNAc
# How it was run: as §1
# [4] = biological target: GlcNAc(b1-2)[GlcNAc(b1-6)]Man(a1-6)[GlcNAc(b1-4)][GlcNAc(b1-2)Man(a1-3)]Man(b1-4)GlcNAc(b1-4)GlcNAc
# How it was run: as §1
# GlcNAc(b1-3)Fuc = biological target: GlcNAc(b1-3)Fuc
# How it was run: as §1
# GlcNAc(b1-3)Gal = biological target: GlcNAc(b1-3)Gal
# How it was run: as §1
# [5] = biological target: GlcNAc(b1-3)Gal(b1-3)GalNAc
# How it was run: as §1
# GlcNAc(b1-3)Gal(b1-4)Glc = biological target: GlcNAc(b1-3)Gal(b1-4)Glc
# How it was run: as §1
# [6] = biological target: GlcNAc(b1-3)Gal(b1-4)GlcNAc
# How it was run: as §1
# [7] = biological target: GlcNAc(b1-3)Gal(b1-4)GlcNAc(b1-2)Man(a1-3)[GlcNAc(b1-3)Gal(b1-4)GlcNAc(b1-2)Man(a1-6)]Man(b1-4)GlcNAc(b1-4)GlcNAc
# How it was run: as §1
# [8] = biological target: GlcNAc(b1-3)Gal(b1-4)GlcNAc(b1-2)Man(a1-3)[GlcNAc(b1-3)Gal(b1-4)GlcNAc(b1-2)Man(a1-6)]Man(b1-4)GlcNAc(b1-4)[Fuc(a1-6)]GlcNAc
# How it was run: as §1
# [9] = biological target: GlcNAc(b1-3)Gal(b1-4)GlcNAc(b1-2)[GlcNAc(b1-3)Gal(b1-4)GlcNAc(b1-6)]Man(a1-6)[GlcNAc(b1-3)Gal(b1-4)GlcNAc(b1-2)Man(a1-3)]Man(b1-4)GlcNAc(b1-4)GlcNAc
# How it was run: as §1
# [10] = biological target: GlcNAc(b1-3)Gal(b1-4)GlcNAc(b1-3)Gal(b1-4)GlcNAc
# How it was run: as §1
# [11] = biological target: GlcNAc(b1-3)Gal(b1-4)GlcNAc(b1-3)Gal(b1-4)GlcNAc(b1-2)Man(a1-3)[GlcNAc(b1-3)Gal(b1-4)GlcNAc(b1-3)Gal(b1-4)GlcNAc(b1-2)Man(a1-6)]Man(b1-4)GlcNAc(b1-4)GlcNAc
# How it was run: as §1
# [12] = biological target: GlcNAc(b1-3)Gal(b1-4)GlcNAc(b1-3)Gal(b1-4)GlcNAc(b1-2)Man(a1-3)[GlcNAc(b1-3)Gal(b1-4)GlcNAc(b1-3)Gal(b1-4)GlcNAc(b1-2)Man(a1-6)]Man(b1-4)GlcNAc(b1-4)[Fuc(a1-6)]GlcNAc
# How it was run: as §1
# [13] = biological target: GlcNAc(b1-3)Gal(b1-4)GlcNAc(b1-3)Gal(b1-4)GlcNAc(b1-2)[GlcNAc(b1-3)Gal(b1-4)GlcNAc(b1-3)Gal(b1-4)GlcNAc(b1-6)]Man(a1-6)[GlcNAc(b1-3)Gal(b1-4)GlcNAc(b1-3)Gal(b1-4)GlcNAc(b1-2)Man(a1-3)]Man(b1-4)GlcNAc(b1-4)[Fuc(a1-6)]GlcNAc
# How it was run: as §1
# [14] = biological target: GlcNAc(b1-3)Gal(b1-4)GlcNAc(b1-3)Gal(b1-4)GlcNAc(b1-3)Gal(b1-4)GlcNAc(b1-2)Man(a1-3)[GlcNAc(b1-3)Gal(b1-4)GlcNAc(b1-3)Gal(b1-4)GlcNAc(b1-3)Gal(b1-4)GlcNAc(b1-2)Man(a1-6)]Man(b1-4)GlcNAc(b1-4)GlcNAc
# How it was run: as §1
# [15] = biological target: GlcNAc(b1-3)Gal(b1-4)GlcNAc(b1-3)Gal(b1-4)GlcNAc(b1-3)Gal(b1-4)GlcNAc(b1-2)Man(a1-3)[GlcNAc(b1-3)Gal(b1-4)GlcNAc(b1-3)Gal(b1-4)GlcNAc(b1-3)Gal(b1-4)GlcNAc(b1-2)Man(a1-6)]Man(b1-4)GlcNAc(b1-4)[Fuc(a1-6)]GlcNAc
# How it was run: as §1
# [16] = biological target: GlcNAc(b1-3)Gal(b1-4)GlcNAc(b1-3)Gal(b1-4)GlcNAc(b1-3)Gal(b1-4)GlcNAc(b1-2)[GlcNAc(b1-3)Gal(b1-4)GlcNAc(b1-3)Gal(b1-4)GlcNAc(b1-3)Gal(b1-4)GlcNAc(b1-6)]Man(a1-6)[GlcNAc(b1-3)Gal(b1-4)GlcNAc(b1-3)Gal(b1-4)GlcNAc(b1-3)Gal(b1-4)GlcNAc(b1-2)Man(a1-3)]Man(b1-4)GlcNAc(b1-4)[Fuc(a1-6)]GlcNAc
# How it was run: as §1
binder,measurement,setting,value
B1,glycan array binding signal (z-score),[1],0.128
same,glycan array binding signal (z-score),[2],1.03
same,glycan array binding signal (z-score),[3],-0.589
same,glycan array binding signal (z-score),[4],-0.93
same,glycan array binding signal (z-score),GlcNAc(b1-3)Fuc,0.13
same,glycan array binding signal (z-score),GlcNAc(b1-3)Gal,-0.541
same,glycan array binding signal (z-score),[5],0.063
same,glycan array binding signal (z-score),GlcNAc(b1-3)Gal(b1-4)Glc,-0.405
same,glycan array binding signal (z-score),[6],-0.484
same,glycan array binding signal (z-score),[7],0.668
same,glycan array binding signal (z-score),[8],0.312
same,glycan array binding signal (z-score),[9],0.029
same,glycan array binding signal (z-score),[10],0.087
same,glycan array binding signal (z-score),[11],1.22
same,glycan array binding signal (z-score),[12],0.101
same,glycan array binding signal (z-score),[13],1.57
same,glycan array binding signal (z-score),[14],0.212
same,glycan array binding signal (z-score),[15],2.14
same,glycan array binding signal (z-score),[16],0.187

# In a second layout: results already given
binder	measurement	setting	value
B1	glycan array binding signal (z-score)	GlcNAc(b1-3)Fuc	0.13
same	glycan array binding signal (z-score)	GlcNAc(b1-3)Gal	-0.541
